Data: ChEMBL document CHEMBL5376015, “Kinase inhibitor macrocycles: a perspective on limiting conformational flexibility when targeting the kinome with small molecules” (RSC Med Chem, 2024)

Experiment: physchem
Settings: buffer, pH 7

Structure (SMILES): Cc1cnc2nc1-c1cccc(c1)COC/C=C/COCc1cc(ccc1OCCN1CCCC1)N2
- solubility: > 150 µg/mL
